Results from PMC3743865, “The FLT3 Inhibitor Quizartinib Inhibits ABCG2 at Pharmacologically Relevant Concentrations, with Implications for Both Chemosensitization and Adverse Drug Interactions” (PLoS ONE, 2013).

Columns and labels:
[1] = molecular target: T1, ABCG2 (Homo sapiens, UniProt Q9UNQ0)
T1 sequence (Q9UNQ0 1-655): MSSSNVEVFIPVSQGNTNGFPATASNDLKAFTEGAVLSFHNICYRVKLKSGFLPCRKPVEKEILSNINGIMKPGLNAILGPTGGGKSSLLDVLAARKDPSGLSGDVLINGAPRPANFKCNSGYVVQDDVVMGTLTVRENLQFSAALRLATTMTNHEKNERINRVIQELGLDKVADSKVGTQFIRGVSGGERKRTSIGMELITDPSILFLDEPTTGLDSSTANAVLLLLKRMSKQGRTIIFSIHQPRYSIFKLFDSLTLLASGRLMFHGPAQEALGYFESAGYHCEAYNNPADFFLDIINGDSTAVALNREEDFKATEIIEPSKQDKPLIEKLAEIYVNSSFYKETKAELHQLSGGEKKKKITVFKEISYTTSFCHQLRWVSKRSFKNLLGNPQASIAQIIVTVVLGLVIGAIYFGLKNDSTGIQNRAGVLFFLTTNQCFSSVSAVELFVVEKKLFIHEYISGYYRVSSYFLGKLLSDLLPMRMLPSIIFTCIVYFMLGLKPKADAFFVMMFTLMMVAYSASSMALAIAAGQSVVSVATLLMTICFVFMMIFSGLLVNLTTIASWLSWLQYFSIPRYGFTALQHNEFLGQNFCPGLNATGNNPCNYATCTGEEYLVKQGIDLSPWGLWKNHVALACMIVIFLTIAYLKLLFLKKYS

[2] = molecular target: T1, ABCG2; assay: inhibition of pheophorbide A and ciprofloxacin transport in ABCG2-overexpressing cells ([…] positive control); type: cell-based; design: wild-type ABCG2 overexpressed in K562/ABCG2 and 8226/MR20 cells

| SMILES | cellular accumulation by fluorescence with and without ABCG2 inhibitors [1] | inhibition of pheophorbide A and ciprofloxacin transport in ABCG2-overexpressing [2] |
| --- | --- | --- |
| O=C(O)c1cn(C2CC2)c2cc(N3CCNCC3)c(F)cc2c1=O [ciprofloxacin] | demonstrated that quizartinib increased ciprofloxacin accumulation in a concentration-dependent manner |  |
| COc1ccc2c3c([nH]c2c1)[C@H](C=C(C)C)N1C(=O)[C@@H]2CCCN2C(=O)[C@@H]1C3 [fumitremorgin C] |  | with the ABCB1 modulator PSC-833 and ABCG2 modulator fumitremorgin C (FTC) as positive controls |
